Patent US20090111753A1, “Nogo-A Polypeptide Fragments, Variant Nogo Receptor-1 Polypeptides, and Uses Thereof” (Yale University, priority 2004, published 2009)
Numbering of substitutions follows the chain as printed. In names and notes the source's numbering stands. Results are given in words; binding and its absence hold for the method and conditions named. Some binding calls cover weakened binding; strength is not graded here.

Columns and labels:
Assay in all cases: AP-ligand binding, COS-7
[1] = biological target: T1, human NgR1 alanine mutant 114, 117 (human) (UniProt Q9BZR6)
T1 sequence: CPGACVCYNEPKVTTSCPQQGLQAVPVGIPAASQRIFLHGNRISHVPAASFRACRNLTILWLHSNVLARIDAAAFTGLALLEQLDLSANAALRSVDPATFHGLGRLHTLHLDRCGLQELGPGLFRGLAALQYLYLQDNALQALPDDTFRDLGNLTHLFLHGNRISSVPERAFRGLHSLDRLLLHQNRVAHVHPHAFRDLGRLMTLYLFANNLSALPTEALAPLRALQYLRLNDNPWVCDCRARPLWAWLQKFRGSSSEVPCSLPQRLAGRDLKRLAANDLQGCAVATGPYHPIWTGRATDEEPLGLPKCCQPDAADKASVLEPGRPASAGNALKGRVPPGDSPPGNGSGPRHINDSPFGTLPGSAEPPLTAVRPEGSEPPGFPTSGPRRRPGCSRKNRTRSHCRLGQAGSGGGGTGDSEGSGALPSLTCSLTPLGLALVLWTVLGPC

[2] = biological target: T2, human NgR1 alanine mutant 189, 191 (human) (UniProt Q9BZR6)
T2 sequence: T1 sequence with A88D, A91Q, R163A, S165A

[3] = biological target: T3, human NgR1 alanine mutant 196, 199 (human) (UniProt Q9BZR6)
T3 sequence: T1 sequence with A88D, A91Q, R170A, R173A

[4] = biological target: T4, human NgR1 alanine mutant 82 (human) (UniProt Q9BZR6)
T4 sequence: T1 sequence with N56A, A88D, A91Q

[5] = biological target: T5, human NgR1 alanine mutant 87, 89 (human) (UniProt Q9BZR6)
T5 sequence: T1 sequence with W61A, H63A, A88D, A91Q

[6] = biological target: T6, human NgR1 alanine mutant 95, 97, 122 (human) (UniProt Q9BZR6)
T6 sequence: T1 sequence with R69A, D71A, A88D, A91Q, D96A

Measured: binding

B1: AP-fused Amino-Nogo fragment B4C (a.a. 950-1018) (ligand)
chain: LLPPDVSALATQAEIESIVKPKVLVKEAEKKLPSDTEKEDRSPSAIFSAELSKTSVVDLLYWRDIKKTG
notes: also called AmNg B4C; AP-B4C; not shown: alkaline phosphatase (AP), vector pcAP6
binds: [1] | [2] | [3] | [4] | [5] | [6]

B2: AP-Nogo-66 (ligand, UniProt Q9NQC3 1055-1120, looked up)
chain: RIYKGVIQAIQKSDEGHPFRAYLESEVAISEELVQKYSNSALGHVNCTIKELRRLFLVDDLVDSLK
notes: domain: Nogo-66; construct described elsewhere (Fournier 2001); also called AP-Ng66; Ng66; not shown: alkaline phosphatase (AP); construct described elsewhere
binds: [1] | [2] | [3] | [4] | [5] | [6]
